# Measured values published in patent publication US20250034197A1, “NUCLEOSIDE-DIPHOSPHATE-HEPTOSE COMPOUNDS FOR TREATING CONDITIONS ASSOCIATED WITH ALPK1 ACTIVITY” (PYROTECH (BEIJING) BIOTECHNOLOGY CO., LTD., priority 2021, published 2025).
# The chains behind the UniProt entries cited, without tags or fusion partners.
# UniProt Q96QP1, whole entry: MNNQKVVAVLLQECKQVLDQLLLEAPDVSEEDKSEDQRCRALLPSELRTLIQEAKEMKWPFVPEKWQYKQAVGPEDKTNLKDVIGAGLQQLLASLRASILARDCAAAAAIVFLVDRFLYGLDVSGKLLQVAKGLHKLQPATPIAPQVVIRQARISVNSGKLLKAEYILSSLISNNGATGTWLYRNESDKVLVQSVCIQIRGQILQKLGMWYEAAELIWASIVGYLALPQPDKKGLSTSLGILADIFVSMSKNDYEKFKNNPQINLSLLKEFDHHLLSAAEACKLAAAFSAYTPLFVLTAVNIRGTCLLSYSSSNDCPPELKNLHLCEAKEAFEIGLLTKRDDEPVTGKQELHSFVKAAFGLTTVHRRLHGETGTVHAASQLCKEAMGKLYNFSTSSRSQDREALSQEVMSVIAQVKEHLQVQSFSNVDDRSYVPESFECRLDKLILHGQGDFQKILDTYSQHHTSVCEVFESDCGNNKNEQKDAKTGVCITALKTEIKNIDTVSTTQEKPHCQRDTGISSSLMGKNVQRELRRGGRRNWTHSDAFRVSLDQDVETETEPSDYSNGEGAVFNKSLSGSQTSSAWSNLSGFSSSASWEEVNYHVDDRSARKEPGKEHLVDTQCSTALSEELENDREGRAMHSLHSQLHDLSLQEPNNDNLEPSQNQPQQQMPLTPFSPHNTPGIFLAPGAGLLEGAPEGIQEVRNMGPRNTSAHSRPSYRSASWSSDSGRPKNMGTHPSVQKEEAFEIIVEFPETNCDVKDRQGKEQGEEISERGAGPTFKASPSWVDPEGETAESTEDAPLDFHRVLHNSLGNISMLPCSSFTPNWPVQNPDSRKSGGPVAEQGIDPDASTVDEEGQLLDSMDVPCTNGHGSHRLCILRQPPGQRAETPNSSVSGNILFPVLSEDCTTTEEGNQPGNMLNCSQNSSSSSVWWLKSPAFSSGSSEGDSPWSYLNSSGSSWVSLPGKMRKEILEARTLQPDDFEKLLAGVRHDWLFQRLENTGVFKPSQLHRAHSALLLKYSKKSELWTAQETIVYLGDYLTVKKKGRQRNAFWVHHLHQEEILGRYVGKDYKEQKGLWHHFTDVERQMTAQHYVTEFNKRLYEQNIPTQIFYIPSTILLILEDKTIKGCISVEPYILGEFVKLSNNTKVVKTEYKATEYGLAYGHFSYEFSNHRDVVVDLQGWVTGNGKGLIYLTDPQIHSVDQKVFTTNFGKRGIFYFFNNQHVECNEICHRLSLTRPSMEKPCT
# The match of structure and compound is tentative.
# Target: ALPK1 (Homo sapiens, UniProt Q96QP1)
# Assay: NF-κB luciferase reporter assay in 293T cells (cellular assay)
# Settings: read-out: Activity on Cellular Assay (EC50)
# Method: The compounds disclosed herein activate NF-κB through ALPK1-TIFA axis as determined by the NF-κB luciferase reporter and TIFA phosphorylation. For NF-κB luciferase assay, the plasmids (pNL2.2-BII-5RE-Luc), and control vector (pRL-TK) were transfected into 293T cells with the Jetprime reagents (Polyplus). NF-κB luciferase activity was determined using the dual luciferase assay kit (Promega) according to the manufacturer's instructions. TIFA phosphorylation upon the treatment with the compounds disclosed herein described in Table 1, were assayed with immunoblotting. Briefly, for the immunoblotting assay, the 293T cells were seeded in 12-well-plates and cultured for 16 h, and treated with indicated compounds for another 2 hours. Subsequently, the cells were collected and sampled as the regular western-blotting method, immunoblotted by the TIFA phosphorylation specific antibody (ab214815, Abcam).
# The EC50 of the compounds disclosed herein were determined by the NF-κB luciferase reporter assay using 293T cells described supra. Compounds with indicated concentrations were added to the culture medium of 293T and the NF-κB luciferase activity was determined using the dual luciferase assay kit (Promega) according to the manufacturer's instructions. […] These chemical entities induce strong activation of the immune regulator NF-κB.
row,EC50,Compound
1,0.0683 µM,C=C[C@@]1(O)[C@H](O)[C@@H](COP(=O)(O)OP(=O)(O)OC2OC([C@H](COC(C)=O)OC(C)=O)C(OC(C)=O)C(OC(C)=O)C2OC(C)=O)O[C@H]1n1cnc2c(N)ncnc21 (some centres unmarked)
2,0.198 µM,CC(=O)OC[C@H](OC(C)=O)C1OC(OP(=O)(O)OP(=O)(O)OC[C@H]2O[C@@H](n3cnc4c(N)ncnc43)[C@H](N(C)C)[C@@H]2O)C(OC(C)=O)C(OC(C)=O)C1OC(C)=O (some centres unmarked)
